Publication PMC10647173
Results are given in words; binding and its absence hold for the method and conditions named. In cells and extracts the contact can be indirect. Some results given as binding are weak or reduced against the parent protein; the word gives no strength.

Amino acid sequences for entries named in this document (tags omitted).
UniProt Q02085: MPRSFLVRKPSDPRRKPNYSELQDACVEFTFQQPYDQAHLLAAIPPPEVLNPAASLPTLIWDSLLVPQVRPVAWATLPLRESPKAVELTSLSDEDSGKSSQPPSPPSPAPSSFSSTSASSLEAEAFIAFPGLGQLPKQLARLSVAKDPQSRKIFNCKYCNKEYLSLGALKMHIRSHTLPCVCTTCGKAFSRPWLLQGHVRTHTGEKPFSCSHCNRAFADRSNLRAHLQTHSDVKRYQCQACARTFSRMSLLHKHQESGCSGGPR

Target: SNAIL1 (in the co-precipitation with KHSRP) (UniProt Q02085)
Experiment: co-IP; co-precipitation told only in the discussion; no figure, cells and antibodies not stated

binding: binds
B1: KHSRP (protein, UniProt Q3U0V1 1-748)
chain: MSDYNTGGPPPGPPPPAGGGGGAAGAGGGPPPGPPGAGDRGGGGPGGGGPGGGGASGGPSQPPGGGGPGIRKDAFADAVQRARQIAAKIGGDAATTVNNNTPDFGFGGQKRQLEDGDQPDSKKLASQGDSIGSQLGPIHPPPRTSMTEEYRVPDGMVGLIIGRGGEQINKIQQDSGCKVQISPDSGGLPERSVSLTGAPESVQKAKMMLDDIVSRGRGGPPGQFHDNANGGQNGTVQEIMIPAGKAGLVIGKGGETIKQLQERAGVKMILIQDGSQNTNVDKPLRIIGDPYKVQQACEMVMDILRERDQGGFGDRNEYGSRVGGGIDVPVPRHSVGVVIGRSGEMIKKIQNDAGVRIQFKQDDGTGPEKIAHIMGPPDRCEHAARIINDLLQSLRSGPPGPPGAPGMPPGGRGRGRGQGNWGPPGGEMTFSIPTHKCGLVIGRGGENVKAINQQTGAFVEISRQLPPNGDPNFKLFVIRGSPQQIDHAKQLIEEKIEGPLCPVGPGPGGPGPAGPMGPFNPGPFNQGPPGAPPHAGGPPPHQYPPQGWGNTYPQWQPPAPHDPNKAAAAATDPNAAWAAYYSHYYQQPPGPVPGPAPAPAAPPAQGEPPQPPPTGQSDYTKAWEEYYKKIGQQPQQPGAPPQQDYTKAWEEYYKKQAQVATGGGPGAPPGSQPDYSAAWAEYYRQQAAYYGQTPGPGGPQPPPTQQGQQQASGNCHPPPPPFSFQPPATVHPALVGSAGNPFPCGVCP
